These results are taken from patent US8450054B2, “Modified Luciola cruciata luciferase gene and protein” (Marker Gene Technologies, Inc., priority 2008, dated 2013).

This data set can be described thus: Wavelength of emitted light of the luciferase. Particulars: pH 6.

B1: modified luciferase: Luciola cruciata luciferase with Ser to Tyr change at position 286, amino acid sequence SEQ ID NO:4, encoded by codon optimized gene SEQ ID NO:3 (protein, listed as Luciola cruciata)
chain: MENMENDENIVVGPKPFYPIEEGSAGTQLRKYMERYAKLGAIAFTNAVTGVDYSYAEYLEKSCCLGKALQNYGLVVDGRIALCSENCEEFFIPVIAGLFIGVGVAPTNEIYTLRELVHSLGISKPTIVFSSKKGLDKVITVQKTVTTIKTIVILDSKVDYRGYQCLDTFIKRNTPPGFQASSFKTVEVDRKEQVALIMNSSGSTGLPKGVQLTHENTVTRFSHARDPIYGNQVSPGTAVLTVVPFHHGFGMFTTLGYLICGFRVVMLTKFDEETFLKTLQDYKCTYVILVPTLFAILNKSELLNKYDLSNLVEIASGGAPLSKEVGEAVARRFNLPGVRQGYGLTETTSAIIITPEGDDKPGASGKVVPLFKAKVIDLDTKKSLGPNRRGEVCVKGPMLMKGYVNNPEATKELIDEEGWLHTGDIGYYDEEKHFFIVDRLKSLIKYKGYQVPPAELESVLLQHPSIFDAGVAGVPDPVAGELPGAVVVLESGKNMTEKEVMDYVASQVSNAKRLRGGVRFVDEVPKGLTGKIDGRAIREILKKPVAKM
Molecule B1 gave an emitted light wavelength of 619 nm.

B2: wild-type protein: Wild-type Japanese firefly Luciola cruciata luciferase protein, SEQ ID NO:2 (protein, listed as Luciola cruciata)
chain: MENMENDENIVVGPKPFYPIEEGSAGTQLRKYMERYAKLGAIAFTNAVTGVDYSYAEYLEKSCCLGKALQNYGLVVDGRIALCSENCEEFFIPVIAGLFIGVGVAPTNEIYTLRELVHSLGISKPTIVFSSKKGLDKVITVQKTVTTIKTIVILDSKVDYRGYQCLDTFIKRNTPPGFQASSFKTVEVDRKEQVALIMNSSGSTGLPKGVQLTHENTVTRFSHARDPIYGNQVSPGTAVLTVVPFHHGFGMFTTLGYLICGFRVVMLTKFDEETFLKTLQDYKCTSVILVPTLFAILNKSELLNKYDLSNLVEIASGGAPLSKEVGEAVARRFNLPGVRQGYGLTETTSAIIITPEGDDKPGASGKVVPLFKAKVIDLDTKKSLGPNRRGEVCVKGPMLMKGYVNNPEATKELIDEEGWLHTGDIGYYDEEKHFFIVDRLKSLIKYKGYQVPPAELESVLLQHPSIFDAGVAGVPDPVAGELPGAVVVLESGKNMTEKEVMDYVASQVSNAKRLRGGVRFVDEVPKGLTGKIDGRAIREILKKPVAKM
Regarding B2, the emitted light wavelength is on record as 560 nm.
